# Reference: PubChem BioAssay (EPA / NIEHS)
# Amino acid sequences for entries named in this document (tags omitted). A change or cut given only in a name is not applied to a line headed by its entry.
# UniProt Q07869: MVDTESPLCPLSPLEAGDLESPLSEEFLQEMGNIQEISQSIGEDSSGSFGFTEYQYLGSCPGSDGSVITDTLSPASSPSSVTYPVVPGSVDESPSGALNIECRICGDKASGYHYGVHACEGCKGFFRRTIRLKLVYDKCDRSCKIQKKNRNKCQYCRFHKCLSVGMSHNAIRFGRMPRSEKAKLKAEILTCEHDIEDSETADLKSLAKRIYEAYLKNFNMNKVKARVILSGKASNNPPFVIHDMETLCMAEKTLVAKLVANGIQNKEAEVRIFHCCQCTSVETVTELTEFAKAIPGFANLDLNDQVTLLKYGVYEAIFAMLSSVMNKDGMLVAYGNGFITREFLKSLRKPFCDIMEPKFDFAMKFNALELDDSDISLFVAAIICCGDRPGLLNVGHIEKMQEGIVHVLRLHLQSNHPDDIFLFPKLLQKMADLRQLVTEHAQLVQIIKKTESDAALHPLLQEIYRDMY
# The inconclusive results got no clear call from the source; some entries with a clear call stand among them for comparison. Potencies of inconclusive entries are doubtful fits and often do not repeat. The source made the active and inactive calls. Rule for the calls: active = hit-call score of the fitted dose curve at least 0.9, where 1 is the maximum; inconclusive = response in the unintended direction; inactive = score below 0.9.
# Target: human Peroxisome Proliferator-activated Receptor alpha (PPARa), PPARA (gene 5465) (UniProt Q07869)
# Assay: ATG_PPARa_TRANS: Attagene TRANS-FACTORIAL HepG2 Assay for human Peroxisome Proliferator-activated Receptor alpha (PPARa) (AID 2283001);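 for AC50: potency for gain of reporter signal over DMSO so agonist or activator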
# In short: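 HepG2 cells transiently transfected with multiplexed GAL4-UAS reporters driven by exogenous chimeric NR-Gal4 proteins; reporter mRNA measured after 24 h dosing. Read-out by RT-PCR, 6-FAM labelling, HpaI digestion and capillary electrophoresis; gain of signal versus DMSO.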
Compound,AC50,outcome
O=C=NC1CCC(CC2CCC(N=C=O)CC2)CC1 (configuration not stated),inconclusive: 26.8 µM,–
CCCCCCCCCC(=O)OCC,active: 64.9 µM,–
CC(C)=CCC/C(C)=C/COC=O,inconclusive: 100 µM,–
C=C1CC/C=C(\C)CC[C@@H]2[C@@H]1CC2(C)C,inconclusive: 26.9 µM,–
CCCCC(CC)COC(=O)c1ccc(N(C)C)cc1 (configuration not stated),inconclusive: 6.97 µM,–
Cc1cccc(Nc2ccccc2C(=O)O)c1C,active: 14.5 µM,–
CCC1(c2ccccc2)C(=O)NCNC1=O,inconclusive: 0.0877 µM,–
CCCCCCCCCC(C)C=O (configuration not stated),active: 27.5 µM,–
CCCCCC/C=C/CCCCCCCC(=O)O,active: 37.6 µM,–
ClC(c1ccccc1)(c1ccccc1)c1ccccc1,inconclusive: 26.9 µM,–
CC(O)CN(CCN(CC(C)O)CC(C)O)CC(C)O (configuration not stated),inconclusive: 100 µM,–
CC1CCC(C(=O)O)CC1 (configuration not stated),inconclusive: 102 µM,–
Cc1c(Cl)cccc1Cl,inconclusive: 100 µM,–
O=S(=O)(O)NC1CCCCC1,–,inactive
COCCc1ccc(OCC(O)CNC(C)C)cc1 (configuration not stated),inconclusive: 100 µM,–
CC(C)CCOC(=O)c1ccccc1,inconclusive: 100 µM,–
O=C(O)c1ccc(C(=O)O)cc1,inconclusive: 168 µM,–
C=C1CC[C@H](O)C/C1=C/C=C1\CCC[C@]2(C)[C@@H]([C@H](C)/C=C/[C@H](C)C(C)C)CC[C@@H]12,inconclusive: 100 µM,–
NS(=O)(=O)O,inconclusive: 23.8 µM,–
Cc1ccc(Nc2ccc(O)c3c2C(=O)c2ccccc2C3=O)cc1,–,inactive
CCCCCCCCCC/C=C/C1CC(=O)OC1=O (configuration not stated),–,inactive

# Looked up one by one from the list above:
Compound,AC50,outcome
Cc1c(Cl)cccc1Cl,inconclusive: 100 µM,–
CCCCCC/C=C/CCCCCCCC(=O)O,active: 37.6 µM,–
